Measurements as given in patent publication US8709811B2, “Materials and methods for synthesis of a flavor and aroma volatile in plants” (University of Florida Research Foundation, Inc., priority 2003, dated 2014).

Tested on: phenylalanine decarboxylase
Assay: In vivo phenylalanine decarboxylase activity of tomato fruit pericarp disks fed 14C-phenylalanine
Conditions: 1 μCi 14C-phenylalanine, 8 hours

| Structure (SMILES) | nCi CO2 (8-2-1 pericarp disks) | nCi CO2 (M82 pericarp disks) | nCi phenethylamine (8-2-1 pericarp disks) | nCi phenethylamine (M82 pericarp disks) |
| --- | --- | --- | --- | --- |
| O=C=O [CO2] | 5.16 ± 2.36 nCi | 0.96 ± 0.05 nCi | – | – |
| NCCc1ccccc1 [phenethylamine] | – | – | 2.08 ± 0.39 nCi | 0.36 ± 0.02 nCi |
